“Also recorded” adds a separate entry of the source. At least one compound was matched to its structure with a doubt left.
Tested on: DOPAchrome tautomerase (TRP-2)
Assay: Induction of DOPAchrome tautomerase (TRP-2) expression in cultured melanocytes, Western blotting
Assay type: cell-based, human
Details: forskolin 20 μM, melanocytes in low basal TRP-2 medium, incubated 24 h, antibody αPEP8h, vimentin as load control, compared with the control (FIG. 4)

C=C[C@@]1(C)CC(=O)[C@]2(O)[C@@]3(C)[C@@H](O)CCC(C)(C)[C@@H]3[C@H](O)[C@H](OC(C)=O)[C@@]2(C)O1 [forskolin]
expression of DOPAchrome tautomerase (TRP-2), TRP-2 level by Western blot: inducing effect on the expression of TRP-2; also recorded: capable of inducing the expression of DOPAchrome tautomerase (TRP-2)

Reference: patent publication US20090118203A1, “Administration of agents inducing dopachrome tautomerase (TRP-2) expression for protecting hair follicle melanocytes” (L'OREAL, priority 2002, published 2009)
